PubChem BioAssay AID1224829 | NIAID – 2016

- Purpose: 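Secondary check of hits that alter LPS-induced p65 translocation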 (follow-up of hits)
- Cells: mouse RAW264.7 G9 macrophage reporter cells
- Reagents: single siRNA against mouse genes, 100 nM
- Duration: 2 days of siRNA knock-down, then 40 min of LPS before fixing
- Conditions: LPS (Salmonella minnesota R595) at 10 ng/ml
- Detection: 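High-content images after 40 min LPS exposure; GFP-p65 nucleus to surrounding ring signal ratio, normalised to plate median and non-targeting control wells, expressed as z-score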
- Reading the numbers: p65 translocation z-score and gene median z-score, per vendor: higher = more nuclear NF-kappaB p65 after LPS
- Hit rule: 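An siRNA is called active when the mean z-score of its two replicates is above 2 or below -2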
- Calls: active = changed p65 translocation (either direction); inactive = no clear change
Here is one part, drawn at random, of about 3,800 deposited reagents. 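Calls cover raised and lowered translocation; gene median uses one vendor's three siRNAs; qiagen siRNAs acted more weakly than ambion siRNAs.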 The numbers tell different reagents against one gene apart.

gene | reagent no. | siRNA vendor or control pool | p65 translocation z-score, replicate mean | p65 translocation z-score, replicate 1 | p65 translocation z-score, replicate 2 | gene median z-score, per vendor | outcome
Lrrc14 (leucine rich repeat containing 14) | 1 | ambion single siRNA | -1.26 | -1.65 | -0.872 | -2.47 | inactive
Lrrc14 (leucine rich repeat containing 14) | 2 | ambion single siRNA | -2.47 | -2.62 | -2.33 | -2.47 | active
Lrrc14 (leucine rich repeat containing 14) | 3 | ambion single siRNA | -3.56 | -2.87 | -4.26 | -2.47 | active
Lrrc14 (leucine rich repeat containing 14) | 4 | qiagen single siRNA | -3.99 | -6.11 | -1.86 | -1.83 | active
Lrrc14 (leucine rich repeat containing 14) | 5 | qiagen single siRNA | -1.87 | -1.95 | -1.8 | -1.83 | inactive
Lrrc14 (leucine rich repeat containing 14) | 6 | qiagen single siRNA | -0.694 | -0.914 | -0.474 | -1.83 | inactive
Mapre3 (microtubule-associated protein, RP/EB family, member 3) | 1 | ambion single siRNA | -1.54 | -1.53 | -1.55 | -0.686 | inactive
Mapre3 (microtubule-associated protein, RP/EB family, member 3) | 2 | ambion single siRNA | -1.02 | 0.157 | -2.2 | -0.686 | inactive
Mapre3 (microtubule-associated protein, RP/EB family, member 3) | 3 | ambion single siRNA | 1.38 | 0.479 | 2.27 | -0.686 | inactive
Mapre3 (microtubule-associated protein, RP/EB family, member 3) | 4 | qiagen single siRNA | -0.0649 | 0.587 | -0.716 | -0.0649 | inactive
Mapre3 (microtubule-associated protein, RP/EB family, member 3) | 5 | qiagen single siRNA | 1.74 | 1.4 | 2.08 | -0.0649 | inactive
Mapre3 (microtubule-associated protein, RP/EB family, member 3) | 6 | qiagen single siRNA | -2.31 | -3.77 | -0.844 | -0.0649 | active
Rnh1 (ribonuclease/angiogenin inhibitor 1) | 1 | ambion single siRNA | 0.768 | 0.885 | 0.651 | -1.95 | inactive
Rnh1 (ribonuclease/angiogenin inhibitor 1) | 2 | ambion single siRNA | -2.4 | -2.49 | -2.3 | -1.95 | active
Rnh1 (ribonuclease/angiogenin inhibitor 1) | 3 | ambion single siRNA | -1.95 | -1.81 | -2.09 | -1.95 | inactive
Rnh1 (ribonuclease/angiogenin inhibitor 1) | 4 | qiagen single siRNA | 3.29 | 3.23 | 3.35 | 1.41 | active
Rnh1 (ribonuclease/angiogenin inhibitor 1) | 5 | qiagen single siRNA | 1.41 | 1.74 | 1.08 | 1.41 | inactive
Rnh1 (ribonuclease/angiogenin inhibitor 1) | 6 | qiagen single siRNA | -1.18 | 0.333 | -2.7 | 1.41 | inactive
Cog3 (component of oligomeric golgi complex 3) | 1 | ambion single siRNA | -1.33 | -1.33 | – | -1.54 | inactive
Cog3 (component of oligomeric golgi complex 3) | 2 | ambion single siRNA | -8 | -7.91 | -8.08 | -1.54 | active
Cog3 (component of oligomeric golgi complex 3) | 3 | ambion single siRNA | 0.817 | 3.18 | -1.54 | -1.54 | inactive
Cog3 (component of oligomeric golgi complex 3) | 4 | qiagen single siRNA | 1.12 | 0.0865 | 2.15 | 0.115 | inactive
Cog3 (component of oligomeric golgi complex 3) | 5 | qiagen single siRNA | 1.77 | 0.143 | 3.39 | 0.115 | inactive
Cog3 (component of oligomeric golgi complex 3) | 6 | qiagen single siRNA | -1.59 | -1.09 | -2.09 | 0.115 | inactive
Or4c107 (olfactory receptor family 4 subfamily C member 107) | 1 | ambion single siRNA | -1.24 | -0.195 | -2.29 | -0.797 | inactive
Or4c107 (olfactory receptor family 4 subfamily C member 107) | 2 | ambion single siRNA | 1.39 | 2.44 | 0.346 | -0.797 | inactive
Or4c107 (olfactory receptor family 4 subfamily C member 107) | 3 | ambion single siRNA | -1.84 | -1.4 | -2.28 | -0.797 | inactive
Or4c107 (olfactory receptor family 4 subfamily C member 107) | 4 | qiagen single siRNA | -1.24 | 0.0557 | -2.53 | -0.307 | inactive
Or4c107 (olfactory receptor family 4 subfamily C member 107) | 5 | qiagen single siRNA | 0.483 | -1.78 | 2.75 | -0.307 | inactive
Or4c107 (olfactory receptor family 4 subfamily C member 107) | 6 | qiagen single siRNA | 0.273 | -0.669 | 1.22 | -0.307 | inactive
Pla2g4a (phospholipase A2, group IVA (cytosolic, calcium-dependent)) | 1 | ambion single siRNA | 1.69 | 3.33 | 0.0451 | -2.8 | inactive
Pla2g4a (phospholipase A2, group IVA (cytosolic, calcium-dependent)) | 2 | ambion single siRNA | -2.8 | -2.33 | -3.26 | -2.8 | active
Pla2g4a (phospholipase A2, group IVA (cytosolic, calcium-dependent)) | 3 | ambion single siRNA | -9.13 | -9.84 | -8.42 | -2.8 | active
Pla2g4a (phospholipase A2, group IVA (cytosolic, calcium-dependent)) | 4 | qiagen single siRNA | 0.717 | 1.43 | 0.00684 | 1.01 | inactive
Pla2g4a (phospholipase A2, group IVA (cytosolic, calcium-dependent)) | 5 | qiagen single siRNA | 0.287 | 0.583 | -0.00871 | 1.01 | inactive
Pla2g4a (phospholipase A2, group IVA (cytosolic, calcium-dependent)) | 6 | qiagen single siRNA | 2.15 | 2.2 | 2.11 | 1.01 | active
Ulk4 (unc-51-like kinase 4) | 1 | ambion single siRNA | -1.97 | -2.09 | -1.84 | -1.99 | inactive
Ulk4 (unc-51-like kinase 4) | 2 | ambion single siRNA | -1.72 | -1.56 | -1.89 | -1.99 | inactive
Ulk4 (unc-51-like kinase 4) | 3 | ambion single siRNA | -5.02 | -5.48 | -4.56 | -1.99 | active
Ulk4 (unc-51-like kinase 4) | 4 | qiagen single siRNA | 2.42 | 2.03 | 2.81 | -0.408 | active
Ulk4 (unc-51-like kinase 4) | 5 | qiagen single siRNA | -1.86 | -1.71 | -2 | -0.408 | inactive
Ulk4 (unc-51-like kinase 4) | 6 | qiagen single siRNA | -0.408 | -0.656 | -0.16 | -0.408 | inactive
Tnfrsf12a (tumor necrosis factor receptor superfamily, member 12a) | 1 | ambion single siRNA | -1.72 | -0.972 | -2.46 | -2.14 | inactive
Tnfrsf12a (tumor necrosis factor receptor superfamily, member 12a) | 2 | ambion single siRNA | -2.55 | -3.04 | -2.06 | -2.14 | active
Tnfrsf12a (tumor necrosis factor receptor superfamily, member 12a) | 3 | ambion single siRNA | -1.66 | -1.1 | -2.23 | -2.14 | inactive
Tnfrsf12a (tumor necrosis factor receptor superfamily, member 12a) | 4 | qiagen single siRNA | -4.46 | -4.46 | – | -2.99 | active
Tnfrsf12a (tumor necrosis factor receptor superfamily, member 12a) | 5 | qiagen single siRNA | -2.41 | -4.19 | -0.633 | -2.99 | active
Tnfrsf12a (tumor necrosis factor receptor superfamily, member 12a) | 6 | qiagen single siRNA | -2.71 | -2.99 | -2.42 | -2.99 | active
Rpl11 (ribosomal protein L11) | 1 | ambion single siRNA | -3.18 | -3.43 | -2.93 | -1.57 | active
Rpl11 (ribosomal protein L11) | 2 | ambion single siRNA | -1.49 | -1.6 | -1.39 | -1.57 | inactive
Rpl11 (ribosomal protein L11) | 3 | ambion single siRNA | -1.43 | -1.32 | -1.53 | -1.57 | inactive
Rpl11 (ribosomal protein L11) | 4 | qiagen single siRNA | -2.33 | -0.275 | -4.38 | -3.46 | active
Rpl11 (ribosomal protein L11) | 5 | qiagen single siRNA | -2.42 | -1.1 | -3.73 | -3.46 | active
Rpl11 (ribosomal protein L11) | 6 | qiagen single siRNA | -5.75 | -3.2 | -8.31 | -3.46 | active
Hmox2 (heme oxygenase 2) | 1 | ambion single siRNA | -1.14 | -1.58 | -0.713 | -1.07 | inactive
Hmox2 (heme oxygenase 2) | 2 | ambion single siRNA | -1.93 | -2.43 | -1.43 | -1.07 | inactive
Hmox2 (heme oxygenase 2) | 3 | ambion single siRNA | 1.34 | 2.76 | -0.0787 | -1.07 | inactive
Hmox2 (heme oxygenase 2) | 4 | qiagen single siRNA | 0.819 | 0.0144 | 1.62 | 0.0144 | inactive
Hmox2 (heme oxygenase 2) | 5 | qiagen single siRNA | -1.66 | -1.66 | – | 0.0144 | inactive
Hmox2 (heme oxygenase 2) | 6 | qiagen single siRNA | 0.0607 | -0.407 | 0.529 | 0.0144 | inactive
2810032G03Rik (RIKEN cDNA 2810032G03 gene) | 1 | ambion single siRNA | -0.898 | -1.02 | -0.776 | -1.02 | inactive
2810032G03Rik (RIKEN cDNA 2810032G03 gene) | 2 | ambion single siRNA | -3.26 | -3.05 | -3.47 | -1.02 | active
2810032G03Rik (RIKEN cDNA 2810032G03 gene) | 3 | ambion single siRNA | 0.237 | 0.237 | – | -1.02 | inactive
2810032G03Rik (RIKEN cDNA 2810032G03 gene) | 4 | qiagen single siRNA | 0.51 | 0.54 | 0.48 | 0.47 | inactive
2810032G03Rik (RIKEN cDNA 2810032G03 gene) | 5 | qiagen single siRNA | -4.23 | -4.23 | – | 0.47 | active
2810032G03Rik (RIKEN cDNA 2810032G03 gene) | 6 | qiagen single siRNA | -0.295 | -1.06 | 0.47 | 0.47 | inactive
